Primary screen of a compound library

By UniProt entry, the sequences of proteins in these tests, tags left out. Residues count along the entry.
UniProt I6X8D2, whole entry: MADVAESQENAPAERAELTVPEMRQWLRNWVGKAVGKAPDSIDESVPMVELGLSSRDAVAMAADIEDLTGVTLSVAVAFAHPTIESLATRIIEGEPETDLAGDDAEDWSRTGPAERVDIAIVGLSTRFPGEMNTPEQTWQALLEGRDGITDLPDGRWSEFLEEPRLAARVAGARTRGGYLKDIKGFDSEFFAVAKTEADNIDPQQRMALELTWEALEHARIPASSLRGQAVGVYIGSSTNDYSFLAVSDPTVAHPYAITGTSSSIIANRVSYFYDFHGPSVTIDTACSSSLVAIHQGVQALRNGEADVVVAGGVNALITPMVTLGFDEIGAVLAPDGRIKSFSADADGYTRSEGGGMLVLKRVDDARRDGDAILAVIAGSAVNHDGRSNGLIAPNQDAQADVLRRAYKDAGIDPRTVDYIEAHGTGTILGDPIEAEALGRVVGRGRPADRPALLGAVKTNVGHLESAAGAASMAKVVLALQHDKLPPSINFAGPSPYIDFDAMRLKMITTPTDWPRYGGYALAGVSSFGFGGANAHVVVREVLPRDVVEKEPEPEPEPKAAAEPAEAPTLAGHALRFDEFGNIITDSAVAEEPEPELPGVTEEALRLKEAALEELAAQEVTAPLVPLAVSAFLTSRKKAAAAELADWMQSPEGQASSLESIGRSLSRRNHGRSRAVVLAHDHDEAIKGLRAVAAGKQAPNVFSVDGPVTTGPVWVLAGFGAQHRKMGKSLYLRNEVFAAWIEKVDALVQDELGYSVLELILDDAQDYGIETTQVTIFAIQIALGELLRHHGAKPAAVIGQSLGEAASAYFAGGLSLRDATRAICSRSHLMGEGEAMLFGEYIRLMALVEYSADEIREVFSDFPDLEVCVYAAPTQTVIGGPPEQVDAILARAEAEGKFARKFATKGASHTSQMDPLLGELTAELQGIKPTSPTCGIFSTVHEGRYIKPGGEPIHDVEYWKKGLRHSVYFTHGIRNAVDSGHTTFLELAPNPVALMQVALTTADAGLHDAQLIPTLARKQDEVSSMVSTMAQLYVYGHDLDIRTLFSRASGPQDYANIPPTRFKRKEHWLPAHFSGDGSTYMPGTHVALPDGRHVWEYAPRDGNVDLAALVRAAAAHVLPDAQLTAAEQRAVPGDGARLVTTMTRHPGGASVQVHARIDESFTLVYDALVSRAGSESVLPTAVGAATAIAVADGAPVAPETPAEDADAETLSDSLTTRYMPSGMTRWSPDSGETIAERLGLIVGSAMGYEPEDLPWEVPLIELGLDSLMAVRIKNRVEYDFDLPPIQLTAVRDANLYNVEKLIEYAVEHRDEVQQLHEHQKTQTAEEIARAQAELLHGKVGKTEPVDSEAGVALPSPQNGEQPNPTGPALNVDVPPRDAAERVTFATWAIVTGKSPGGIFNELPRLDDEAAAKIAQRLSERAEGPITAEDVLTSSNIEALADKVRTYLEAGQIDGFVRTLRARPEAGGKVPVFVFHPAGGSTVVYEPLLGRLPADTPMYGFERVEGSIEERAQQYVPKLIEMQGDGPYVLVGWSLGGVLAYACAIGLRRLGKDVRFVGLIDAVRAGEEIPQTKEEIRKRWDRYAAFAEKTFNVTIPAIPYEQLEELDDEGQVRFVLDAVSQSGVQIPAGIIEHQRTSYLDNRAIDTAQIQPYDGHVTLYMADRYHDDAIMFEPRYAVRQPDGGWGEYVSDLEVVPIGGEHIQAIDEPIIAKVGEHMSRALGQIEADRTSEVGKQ
UniProt Q4DA54, 1-478: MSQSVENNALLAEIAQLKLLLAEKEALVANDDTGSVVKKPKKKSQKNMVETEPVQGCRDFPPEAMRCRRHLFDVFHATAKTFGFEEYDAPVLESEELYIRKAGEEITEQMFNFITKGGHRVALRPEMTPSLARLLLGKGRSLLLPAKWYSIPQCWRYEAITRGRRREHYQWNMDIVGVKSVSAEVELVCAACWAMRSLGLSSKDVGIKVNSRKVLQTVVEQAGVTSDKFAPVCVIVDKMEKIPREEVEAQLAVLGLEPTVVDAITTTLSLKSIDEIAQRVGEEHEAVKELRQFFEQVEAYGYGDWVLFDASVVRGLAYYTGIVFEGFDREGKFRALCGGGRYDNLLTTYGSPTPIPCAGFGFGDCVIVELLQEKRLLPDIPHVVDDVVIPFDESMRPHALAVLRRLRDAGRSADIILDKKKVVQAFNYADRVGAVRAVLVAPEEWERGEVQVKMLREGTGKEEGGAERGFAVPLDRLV
UniProt P9WPC5, whole entry: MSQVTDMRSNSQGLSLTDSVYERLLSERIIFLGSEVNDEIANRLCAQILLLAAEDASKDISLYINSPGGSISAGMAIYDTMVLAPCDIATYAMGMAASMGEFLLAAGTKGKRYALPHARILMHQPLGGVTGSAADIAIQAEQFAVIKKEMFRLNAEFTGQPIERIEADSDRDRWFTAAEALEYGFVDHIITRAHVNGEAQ
UniProt P9WPC3, whole entry partner: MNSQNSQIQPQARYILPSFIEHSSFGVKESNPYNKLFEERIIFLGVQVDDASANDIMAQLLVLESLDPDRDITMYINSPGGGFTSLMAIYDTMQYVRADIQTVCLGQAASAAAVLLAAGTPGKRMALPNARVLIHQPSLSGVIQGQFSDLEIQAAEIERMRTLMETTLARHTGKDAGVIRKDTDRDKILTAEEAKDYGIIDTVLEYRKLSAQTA
UniProt A4I591, 1-473: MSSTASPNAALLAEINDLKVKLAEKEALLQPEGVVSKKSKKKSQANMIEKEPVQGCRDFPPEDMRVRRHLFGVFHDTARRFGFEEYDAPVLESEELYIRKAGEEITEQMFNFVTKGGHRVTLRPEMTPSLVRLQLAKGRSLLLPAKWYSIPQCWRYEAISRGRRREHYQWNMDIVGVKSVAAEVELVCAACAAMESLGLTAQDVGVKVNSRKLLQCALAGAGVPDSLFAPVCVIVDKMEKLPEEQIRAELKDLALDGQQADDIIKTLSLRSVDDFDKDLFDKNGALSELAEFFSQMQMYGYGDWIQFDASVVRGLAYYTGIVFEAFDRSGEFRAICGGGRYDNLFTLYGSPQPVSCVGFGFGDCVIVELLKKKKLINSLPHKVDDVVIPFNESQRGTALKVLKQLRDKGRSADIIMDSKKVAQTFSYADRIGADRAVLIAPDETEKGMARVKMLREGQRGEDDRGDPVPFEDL

Pks13 thioesterase: 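Polyketide synthase Pks13, Mycobacterium tuberculosis (UniProt I6X8D2). Enzyme assay of the thioesterase domain of polyketide synthase 13; the read-out is not stated. Tested at 30 µM. The record gives no direction; the compounds picked for IC50 retests had high values, so higher reads as stronger inhibition. About 67,000 compounds were tested under these conditions; 0.46% (about 300) showed 50% or more at least once.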
TcHisRS: 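Histidine-tRNA ligase, Trypanosoma cruzi CL Brener (UniProt Q4DA54). Enzyme assay of histidyl-tRNA synthetase; the read-out is not stated. Tested at 30 µM. Higher reads as stronger inhibition (inferred: compounds with an IC50 in retests scored well above the rest). Of about 69,000 compounds tested this way, about 31 (0.045%) reached 50% or more in at least one test.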
ClpP1P2: 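ClpP1P2, Mycobacterium tuberculosis (UniProt P9WPC5 and UniProt P9WPC3). Protease assay of ClpP1P2, read by the AMC dye that it sets free. Compounds at 50 µM. Direction is inferred from only a few compounds that gave an IC50; most scored high, so higher reads as stronger inhibition. Most other retested compounds had strongly negative values. Size under these conditions: about 69,000 compounds, about 10 of them at 50% or above in at least one test.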
Leishmania in macrophages: 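Cell assay of Leishmania donovani living inside macrophages; the read-out is not stated. Concentration: 30 µM. Higher reads as stronger inhibition (inferred: compounds with an IC50 in retests scored well above the rest). Size under these conditions: about 69,000 compounds, about 1,000 of them at 50% or above in at least one test.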
LiHisRS: 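Enzyme assay of histidyl-tRNA synthetase; the read-out is not stated. Target: Histidine-tRNA ligase, Leishmania infantum (UniProt A4I591). Compounds at 30 µM. The record gives no direction; compounds that gave an IC50 in retests scored well above the rest, so higher reads as stronger inhibition. The assay is labelled LdHisRS but filed under L. infantum. Of about 69,000 compounds tested this way, about 410 (0.6%) reached 50% or more in at least one test.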

Results are given as percent effect. The controls that fix the scale are not given in the record; negative values are as filed. The compounds are a random part of those screened. A dash means the value is not listed here; it may have been measured.

SMILES,Pks13 thioesterase,TcHisRS,ClpP1P2,Leishmania in macrophages,LiHisRS
COc1cc(C2C3=C(COC3=O)Nc3[nH]nc(C)c32)cc2c1OCO2 (stereo not drawn),-44.11,-2.273,0.05749,18.19,11.67
COCCCNC(=O)CN(C)C(C)c1nc(C)no1 (stereo not drawn),-3.41,8,-9.44,23.71,10.2
CCCc1nc(C)c(C(=O)NCCn2nc3ccccn3c2=O)s1,-28.87,5.539,-27.41,-7.952,14.68
Cn1ccnc1CNC(=O)CC1CCCCO1 (stereo not drawn),6.839,-1.13,3.535,20.05,5.594
CCC(=O)NCCc1cc2nc(-c3ccncc3)ccn2n1,9.005,1.695,-1.11,9.1,4.196
[H][C@@]12CCN(C(=O)Cc3ccc(F)cc3OC)C[C@]1([H])OCCNC2=O,-,-,-,36.01,-
CC(c1cccnc1)N(C)Cc1cc(O)c2cc(F)ccc2n1 (stereo not drawn),-18.1,2.762,-4.93,25.69,4.167
N#Cc1ccc(SCCC(=O)Nc2ccc(CC(N)=O)cc2)cc1,-2.108,9.877,1.498,15.09,11.76
O=C(O)C(F)(F)F.c1cncc(N2CCC3(CCCN(c4ccncc4)C3)CC2)c1,-,-,-,11.52,-
O=C(c1ccncc1F)N1Cc2nc(CN3CCCCC3)oc2C1,-9.381,3.093,-4.499,-,10
CC(C)(C)N1CC(C(=O)N2CC(Oc3ccc(F)cc3)C2)CC1=O (stereo not drawn),-2.095,8.8,15.19,18.7,13.27
CC(C)N(C)C(=O)CSCc1ccc(S(=O)(=O)N(C)C)o1,-11.6,6.667,-11.58,-0.3629,2.564
Cc1ncsc1CCN1CCC(N(C)Cc2ncc(C(C)C)o2)C1 (stereo not drawn),-2.158,7.071,15.25,-1.197,12.7
Cc1[nH]ccc1C(=O)N1CCC2(CC1)c1nc[nH]c1CCN2S(C)(=O)=O,-8.265,2.041,-5.344,-17.93,16.13
COCCN1CCN(C(=O)C[C@@H]2C[C@@H](C(C)C)[C@H](CO)C=C2C)CC1,8.516,2.97,-14.43,-2.903,2.778
CCC(Nc1nccc(C2CCCC2)n1)c1ncccc1C (stereo not drawn),20.89,4.348,6.742,-51.61,11.84
CN(C)C(=O)c1cn[nH]c1C1CCCN1Cc1cncn1C (stereo not drawn),-17.41,4.286,-2.937,10.8,14.77
O=C(Nc1cc[nH]n1)c1ccc(COCC(F)(F)F)cc1,7.951,4.95,-5.118,-8.966,-26.19
CCc1nnsc1C(=O)N(C)Cc1ccc(C)o1,-24.43,0.5618,3.373,27.51,23.08
CN(C)CC(=O)N1CCC2(CC1)COCCN(Cc1ccncc1)C2,-0.5163,3.061,-12.47,19.38,15
Cc1cccc2[nH]c(-c3cn(C4CCNCC4)nn3)nc12,-19.74,2.762,-0.6604,8.553,21.13
COc1ccc2nnc(CCCC(=O)NCCC3=CCCCC3)n2n1,-75.89,-3.825,6.964,21.66,15.53
O=C(Cc1cccc(F)c1F)N1CCOC(c2cccc(O)c2)C1 (stereo not drawn),-50.53,4.459,0.9648,1.357,18.31
[H][C@@]12CCN(C(=O)c3ccsc3)C[C@@]1([H])O[C@H](c1noc(C)n1)C2,-,-,-,14.93,-
CC(C)OCc1noc(C2CCCOC2)n1 (stereo not drawn),-32.34,7.328,-14.99,30.76,1.266
Cc1ccc(C(=O)NCCS(=O)(=O)N2CCSCC2)o1,4.074,1.754,-7.119,-11.12,5.31
Cc1cnn(CCNCc2cc(=O)n3cc(Cl)ccc3n2)c1,-6.863,7.843,12.15,8.48,18.33
CC(C)c1cc(C(=O)N[C@H]2CN(C3CCOCC3)C[C@@H]2C2CC2)no1,-34.05,1.064,-8.489,25.64,6.25
Cc1cccc(CSc2nnc(C)n2CC(N)=O)c1,-12.22,5.521,-3.805,3.938,14.81
Cc1[nH]c2ccc(C#N)cc2c1CCNc1ncnc2c1CCNCC2,-37.2,5.747,-2.801,16.81,12.82
COc1ccc(-n2cccn2)c(CN2CCC3(CCCNC3)C2)c1 (stereo not drawn),-10.37,13.33,7.48,30.71,18.37
COc1ncccc1NC(=O)C1CCS(=O)(=O)C1 (stereo not drawn),-2.434,1.527,9.047,-5.176,8.219
[H][C@@]12CN(CCCc3ccccc3)C[C@]1([H])OCC(=O)N2CCOC,-,-,-,37.2,-
Cc1nn(C)cc1NC(=O)CN1CCN(C2CCCC2)C(=O)C1,-2.801,1.13,-6.752,-31.34,6.993
[H][C@@]12CCN(S(C)(=O)=O)[C@]1([H])CC[C@@H](c1nc(C)no1)O2,-,-,-,1.226,-
COc1cc(N2C[C@@H]3COC[C@]3(C(=O)NCc3ccccn3)C2)ncn1,-18.83,2.151,-11.27,-,5.263
C[C@H]1CN(Cc2cnn(C)c2)C[C@@]12CCN(Cc1cccnc1)C2=O,-0.9865,4.511,-0.5126,20.7,12.2
COCC1c2nnn(CC3CC3)c2CCN1C(=O)CS(C)(=O)=O (stereo not drawn),-6.805,-1.087,-1.318,28.5,14.47
COCc1cncc2c1CCN(Cc1cccs1)C2,-26.09,6.25,13.73,-,15.6

For reference, 3 entries once more:

{"smiles": "C[C@H]1CN(Cc2cnn(C)c2)C[C@@]12CCN(Cc1cccnc1)C2=O", "Pks13 thioesterase": -0.9865, "TcHisRS": 4.511, "ClpP1P2": -0.5126, "Leishmania in macrophages": 20.7, "LiHisRS": 12.2}
{"smiles": "CC(c1cccnc1)N(C)Cc1cc(O)c2cc(F)ccc2n1", "stereo": "stereo not drawn", "Pks13 thioesterase": -18.1, "TcHisRS": 2.762, "ClpP1P2": -4.93, "Leishmania in macrophages": 25.69, "LiHisRS": 4.167}
{"smiles": "COc1cc(N2C[C@@H]3COC[C@]3(C(=O)NCc3ccccn3)C2)ncn1", "Pks13 thioesterase": -18.83, "TcHisRS": 2.151, "ClpP1P2": -11.27, "LiHisRS": 5.263}

The values are deposited in ChEMBL (CHEMBL3988442, “University of Dundee, Small-Polar-MMV Screening Library” (2021)).